8 substances from article doi:10.1101/2023.02.23.529725 can be followed below.

Protein sequences, listed by entry. Tags and fused reporters are not part of them. Lines headed by an entry give the natural chain unless they say otherwise; changes in a name come on top.
UniProt Q42577: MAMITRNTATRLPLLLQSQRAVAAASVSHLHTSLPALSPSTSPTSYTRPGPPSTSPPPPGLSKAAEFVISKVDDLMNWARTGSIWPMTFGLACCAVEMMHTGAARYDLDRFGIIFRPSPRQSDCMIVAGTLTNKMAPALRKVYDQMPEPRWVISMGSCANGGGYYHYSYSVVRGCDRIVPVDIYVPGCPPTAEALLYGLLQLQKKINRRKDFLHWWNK
UniProt Q9FJW4: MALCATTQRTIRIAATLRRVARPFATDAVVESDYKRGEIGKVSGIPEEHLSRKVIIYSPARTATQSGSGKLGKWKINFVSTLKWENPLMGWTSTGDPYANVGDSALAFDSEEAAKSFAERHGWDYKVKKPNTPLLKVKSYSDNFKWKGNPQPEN
UniProt Q9FGI6: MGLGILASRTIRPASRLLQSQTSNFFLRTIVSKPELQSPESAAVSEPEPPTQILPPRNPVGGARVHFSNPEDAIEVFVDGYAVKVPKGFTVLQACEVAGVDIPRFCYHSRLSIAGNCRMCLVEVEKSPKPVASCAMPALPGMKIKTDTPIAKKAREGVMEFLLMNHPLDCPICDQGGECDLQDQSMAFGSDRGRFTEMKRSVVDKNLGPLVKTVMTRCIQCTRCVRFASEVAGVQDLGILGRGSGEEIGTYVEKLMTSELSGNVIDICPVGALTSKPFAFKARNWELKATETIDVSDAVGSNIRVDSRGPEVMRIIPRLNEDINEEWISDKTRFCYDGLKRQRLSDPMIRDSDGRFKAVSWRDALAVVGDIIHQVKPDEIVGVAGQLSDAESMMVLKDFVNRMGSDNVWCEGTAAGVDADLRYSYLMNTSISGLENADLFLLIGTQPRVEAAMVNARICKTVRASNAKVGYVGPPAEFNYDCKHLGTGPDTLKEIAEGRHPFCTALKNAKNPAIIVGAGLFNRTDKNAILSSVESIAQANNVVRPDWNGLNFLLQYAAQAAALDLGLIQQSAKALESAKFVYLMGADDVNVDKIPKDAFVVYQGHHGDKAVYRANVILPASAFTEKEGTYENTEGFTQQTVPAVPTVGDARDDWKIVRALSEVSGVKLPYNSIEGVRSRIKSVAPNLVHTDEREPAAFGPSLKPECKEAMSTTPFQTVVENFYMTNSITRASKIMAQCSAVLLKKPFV
UniProt P83483: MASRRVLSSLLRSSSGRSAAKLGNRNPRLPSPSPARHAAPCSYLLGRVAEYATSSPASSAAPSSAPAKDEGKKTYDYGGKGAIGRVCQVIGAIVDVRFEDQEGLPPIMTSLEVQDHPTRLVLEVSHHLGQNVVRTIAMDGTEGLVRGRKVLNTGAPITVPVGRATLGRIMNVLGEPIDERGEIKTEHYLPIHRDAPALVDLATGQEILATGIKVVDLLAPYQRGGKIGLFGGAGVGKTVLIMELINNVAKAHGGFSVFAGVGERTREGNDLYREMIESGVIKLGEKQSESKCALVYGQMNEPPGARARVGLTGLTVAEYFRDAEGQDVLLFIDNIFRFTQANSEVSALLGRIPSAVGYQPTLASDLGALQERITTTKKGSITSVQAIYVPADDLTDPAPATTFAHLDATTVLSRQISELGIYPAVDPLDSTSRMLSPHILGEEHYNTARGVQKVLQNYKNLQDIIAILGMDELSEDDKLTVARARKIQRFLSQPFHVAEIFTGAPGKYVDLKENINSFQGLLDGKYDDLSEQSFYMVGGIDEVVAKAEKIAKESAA
UniProt Q9C6B3: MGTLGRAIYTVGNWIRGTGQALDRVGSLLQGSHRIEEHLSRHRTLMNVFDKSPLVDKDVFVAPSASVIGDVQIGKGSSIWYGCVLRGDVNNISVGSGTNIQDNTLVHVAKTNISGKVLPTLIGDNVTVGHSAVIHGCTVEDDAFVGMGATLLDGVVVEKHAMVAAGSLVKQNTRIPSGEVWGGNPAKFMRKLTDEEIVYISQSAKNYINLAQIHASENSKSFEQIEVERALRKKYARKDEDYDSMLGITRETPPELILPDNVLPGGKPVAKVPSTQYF
UniProt Q9FMV1: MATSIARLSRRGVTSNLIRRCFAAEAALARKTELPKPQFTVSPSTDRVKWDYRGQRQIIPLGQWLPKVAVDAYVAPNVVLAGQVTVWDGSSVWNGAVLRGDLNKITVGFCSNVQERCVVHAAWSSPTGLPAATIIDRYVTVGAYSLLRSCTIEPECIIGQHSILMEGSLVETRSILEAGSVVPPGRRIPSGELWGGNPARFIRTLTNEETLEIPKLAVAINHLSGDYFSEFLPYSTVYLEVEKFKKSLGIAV
UniProt Q84WU8: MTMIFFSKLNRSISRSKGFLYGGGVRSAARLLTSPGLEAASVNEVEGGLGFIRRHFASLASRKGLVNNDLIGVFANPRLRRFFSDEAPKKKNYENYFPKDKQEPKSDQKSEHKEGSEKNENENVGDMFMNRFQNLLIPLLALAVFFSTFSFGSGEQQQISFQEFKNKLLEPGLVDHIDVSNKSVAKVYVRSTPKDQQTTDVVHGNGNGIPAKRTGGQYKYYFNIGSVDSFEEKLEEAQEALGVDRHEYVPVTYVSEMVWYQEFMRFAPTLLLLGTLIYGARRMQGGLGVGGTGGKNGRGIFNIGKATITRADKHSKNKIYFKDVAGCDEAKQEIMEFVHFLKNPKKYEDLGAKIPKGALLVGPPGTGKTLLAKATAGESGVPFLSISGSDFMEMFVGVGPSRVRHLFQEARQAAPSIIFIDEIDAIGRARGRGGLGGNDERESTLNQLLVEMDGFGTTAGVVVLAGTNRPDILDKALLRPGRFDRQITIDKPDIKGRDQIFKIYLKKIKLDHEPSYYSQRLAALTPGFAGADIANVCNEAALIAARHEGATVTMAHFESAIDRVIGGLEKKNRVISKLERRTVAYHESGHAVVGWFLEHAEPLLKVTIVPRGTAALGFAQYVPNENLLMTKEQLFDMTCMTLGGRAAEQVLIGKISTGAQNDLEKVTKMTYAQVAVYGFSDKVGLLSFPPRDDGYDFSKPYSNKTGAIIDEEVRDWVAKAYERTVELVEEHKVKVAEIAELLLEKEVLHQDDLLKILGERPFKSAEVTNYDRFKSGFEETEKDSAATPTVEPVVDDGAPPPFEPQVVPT
UniProt Q94JS0: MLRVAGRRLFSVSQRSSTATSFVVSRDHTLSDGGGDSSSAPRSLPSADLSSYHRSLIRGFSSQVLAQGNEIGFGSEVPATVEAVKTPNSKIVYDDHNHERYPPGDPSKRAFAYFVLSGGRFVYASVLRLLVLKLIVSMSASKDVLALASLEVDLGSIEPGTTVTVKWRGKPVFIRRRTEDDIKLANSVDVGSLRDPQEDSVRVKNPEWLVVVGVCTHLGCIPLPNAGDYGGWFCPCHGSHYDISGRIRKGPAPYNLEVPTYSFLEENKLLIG

The target in experiment [1] is T1, FLAG-tagged CI subunit B14.7 (B14.7^FLAG) (Arabidopsis (Col-0)) (UniProt O48528).
T1 sequence: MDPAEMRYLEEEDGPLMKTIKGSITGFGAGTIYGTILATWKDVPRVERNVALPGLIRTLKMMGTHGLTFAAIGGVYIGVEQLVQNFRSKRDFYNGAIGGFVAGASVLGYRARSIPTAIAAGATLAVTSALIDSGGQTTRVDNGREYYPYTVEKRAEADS
Description: co-IP.

In experiment [2] the target is PSST, yeast two-hybrid fusion (Arabidopsis (Col-0)) (UniProt Q42577). Nature of the experiment: two-hybrid.

No constants are given. Whether binding was seen depends on the method and setting. For some assays here: Binding seen in cells or lysates may run through a third protein. For some assays here: A result given as binding can be weak or reduced; the word gives no strength. For some assays here: Sequences can lack the tags named with a protein.

As to “18 kD (NDUFS4) complex I subunit (from UniProt Q9FJW4)”, the binding result in experiment [1] is “binds”.

Turning to “75 kD complex I subunit (from UniProt Q9FGI6)”, in experiment [1], the binding entry is reported as “binds”.

“ATP synthase subunit-β (ATPβ) (from UniProt P83483)”: the binding result in experiment [1] is recorded as “no binding”.

Turning to “CA2 complex I subunit (from UniProt Q9C6B3)”, the binding result in experiment [1] is on record as “binds”.

Consider “CAL1 complex I subunit (from UniProt Q9FMV1)”, for which, in experiment [1], the binding entry is “binds”.

For the substance “FTSH3^TRAP/P415L, yeast two-hybrid fusion (from UniProt Q84WU8 1-809) (enzyme)”, the binding entry in experiment [2] is listed as “no binding”.

On to PSST, 20 kD complex I Q-module subunit, for which the binding entry in experiment [1] is on record as “binds”.

On to “Rieske iron-sulfur protein (RISP), complex III subunit (from UniProt Q94JS0)”, for which the binding result in experiment [1] is recorded as “no binding”.
